Measurements taken from the supplement of paper PMC10849652.
The other results are listed elsewhere or left out.

Sequences of proteins named here, by UniProt entry; tags and fusion partners are left off. A change or cut given only in a name is not applied to a line headed by its entry.
UniProt P35249, whole entry, looked up: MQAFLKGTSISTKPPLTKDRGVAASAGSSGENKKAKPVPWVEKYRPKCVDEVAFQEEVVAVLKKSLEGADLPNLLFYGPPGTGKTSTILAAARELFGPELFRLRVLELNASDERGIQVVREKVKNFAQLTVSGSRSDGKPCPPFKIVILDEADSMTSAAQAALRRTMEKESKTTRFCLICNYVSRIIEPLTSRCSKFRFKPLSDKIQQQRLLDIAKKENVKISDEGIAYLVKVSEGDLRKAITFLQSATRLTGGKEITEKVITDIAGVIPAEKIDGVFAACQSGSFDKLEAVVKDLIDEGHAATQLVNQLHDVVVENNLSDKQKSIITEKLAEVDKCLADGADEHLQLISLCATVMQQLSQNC
UniProt P84095: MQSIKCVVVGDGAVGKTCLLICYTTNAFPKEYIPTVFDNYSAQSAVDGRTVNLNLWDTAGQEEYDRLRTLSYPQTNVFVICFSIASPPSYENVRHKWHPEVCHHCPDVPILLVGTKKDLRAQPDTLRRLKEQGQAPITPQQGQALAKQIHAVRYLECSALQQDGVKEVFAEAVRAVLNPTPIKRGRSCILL
UniProt Q96D15: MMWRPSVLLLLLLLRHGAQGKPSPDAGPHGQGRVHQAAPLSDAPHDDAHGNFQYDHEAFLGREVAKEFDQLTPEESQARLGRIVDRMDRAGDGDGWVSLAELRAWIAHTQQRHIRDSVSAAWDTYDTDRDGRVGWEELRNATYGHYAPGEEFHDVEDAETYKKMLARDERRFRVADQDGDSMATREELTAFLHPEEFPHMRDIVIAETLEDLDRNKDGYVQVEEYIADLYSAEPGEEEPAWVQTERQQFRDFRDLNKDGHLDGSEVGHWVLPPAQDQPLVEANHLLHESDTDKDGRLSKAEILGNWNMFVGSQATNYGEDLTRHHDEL
UniProt Q9BWE0: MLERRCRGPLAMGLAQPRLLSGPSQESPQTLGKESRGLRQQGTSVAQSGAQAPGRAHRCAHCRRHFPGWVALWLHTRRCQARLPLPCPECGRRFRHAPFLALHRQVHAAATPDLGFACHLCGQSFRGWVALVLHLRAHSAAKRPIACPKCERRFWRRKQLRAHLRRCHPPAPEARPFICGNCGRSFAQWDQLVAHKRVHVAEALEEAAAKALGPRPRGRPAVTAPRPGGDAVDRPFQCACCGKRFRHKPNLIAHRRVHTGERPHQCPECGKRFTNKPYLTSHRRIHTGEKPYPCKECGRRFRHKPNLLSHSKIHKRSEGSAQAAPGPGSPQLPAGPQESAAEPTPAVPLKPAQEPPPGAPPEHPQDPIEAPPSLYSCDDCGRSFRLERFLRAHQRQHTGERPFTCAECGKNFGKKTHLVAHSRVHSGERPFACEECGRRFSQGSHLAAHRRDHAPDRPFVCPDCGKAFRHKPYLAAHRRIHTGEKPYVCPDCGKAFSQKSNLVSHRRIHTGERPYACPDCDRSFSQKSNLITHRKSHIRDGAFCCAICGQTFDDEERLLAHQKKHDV
UniProt Q9UKL0, whole entry, looked up: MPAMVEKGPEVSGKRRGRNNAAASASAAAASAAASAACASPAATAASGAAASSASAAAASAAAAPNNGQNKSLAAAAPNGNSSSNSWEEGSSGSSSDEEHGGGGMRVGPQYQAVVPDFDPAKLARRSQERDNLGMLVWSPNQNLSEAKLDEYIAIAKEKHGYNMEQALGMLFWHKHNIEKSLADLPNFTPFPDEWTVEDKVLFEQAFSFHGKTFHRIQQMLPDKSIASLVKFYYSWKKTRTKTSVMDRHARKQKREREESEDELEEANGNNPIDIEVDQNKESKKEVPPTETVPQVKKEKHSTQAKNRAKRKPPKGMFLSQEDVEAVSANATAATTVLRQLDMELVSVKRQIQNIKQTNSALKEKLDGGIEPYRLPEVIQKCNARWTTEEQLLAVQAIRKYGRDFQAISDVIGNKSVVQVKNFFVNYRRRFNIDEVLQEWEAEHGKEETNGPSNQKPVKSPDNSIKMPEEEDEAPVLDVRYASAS
UniProt Q8TAC1: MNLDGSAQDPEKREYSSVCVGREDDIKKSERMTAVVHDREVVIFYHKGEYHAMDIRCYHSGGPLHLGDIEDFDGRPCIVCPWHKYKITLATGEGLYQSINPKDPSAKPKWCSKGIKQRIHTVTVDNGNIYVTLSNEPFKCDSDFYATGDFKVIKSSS
UniProt Q9NWS8: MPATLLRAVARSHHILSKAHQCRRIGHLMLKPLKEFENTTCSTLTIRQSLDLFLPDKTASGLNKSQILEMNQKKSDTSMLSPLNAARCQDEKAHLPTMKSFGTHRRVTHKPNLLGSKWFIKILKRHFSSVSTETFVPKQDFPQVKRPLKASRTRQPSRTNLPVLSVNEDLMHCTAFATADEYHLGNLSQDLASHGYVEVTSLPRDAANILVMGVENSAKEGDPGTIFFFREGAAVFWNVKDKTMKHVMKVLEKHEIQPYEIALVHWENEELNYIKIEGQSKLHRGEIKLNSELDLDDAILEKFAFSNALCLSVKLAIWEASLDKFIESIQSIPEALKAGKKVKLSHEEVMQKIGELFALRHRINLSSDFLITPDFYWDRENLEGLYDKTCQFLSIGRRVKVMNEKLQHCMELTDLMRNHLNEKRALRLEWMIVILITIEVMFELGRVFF
UniProt Q9BV68: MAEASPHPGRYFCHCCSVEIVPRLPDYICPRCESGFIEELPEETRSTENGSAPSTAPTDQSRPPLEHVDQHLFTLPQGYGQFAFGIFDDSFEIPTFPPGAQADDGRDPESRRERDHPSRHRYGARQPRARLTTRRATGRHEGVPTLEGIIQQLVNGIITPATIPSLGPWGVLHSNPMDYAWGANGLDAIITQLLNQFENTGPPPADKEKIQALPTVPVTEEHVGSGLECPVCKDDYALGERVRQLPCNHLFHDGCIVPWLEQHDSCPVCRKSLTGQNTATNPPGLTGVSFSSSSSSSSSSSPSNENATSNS
UniProt Q9H6H4: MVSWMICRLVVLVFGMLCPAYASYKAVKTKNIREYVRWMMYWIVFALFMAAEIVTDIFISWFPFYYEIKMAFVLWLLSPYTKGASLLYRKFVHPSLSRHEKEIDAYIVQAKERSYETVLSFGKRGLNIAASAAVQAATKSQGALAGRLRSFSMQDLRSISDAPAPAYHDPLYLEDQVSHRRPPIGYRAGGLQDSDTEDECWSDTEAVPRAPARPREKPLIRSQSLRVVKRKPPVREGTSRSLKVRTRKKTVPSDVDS
UniProt Q9BWF3: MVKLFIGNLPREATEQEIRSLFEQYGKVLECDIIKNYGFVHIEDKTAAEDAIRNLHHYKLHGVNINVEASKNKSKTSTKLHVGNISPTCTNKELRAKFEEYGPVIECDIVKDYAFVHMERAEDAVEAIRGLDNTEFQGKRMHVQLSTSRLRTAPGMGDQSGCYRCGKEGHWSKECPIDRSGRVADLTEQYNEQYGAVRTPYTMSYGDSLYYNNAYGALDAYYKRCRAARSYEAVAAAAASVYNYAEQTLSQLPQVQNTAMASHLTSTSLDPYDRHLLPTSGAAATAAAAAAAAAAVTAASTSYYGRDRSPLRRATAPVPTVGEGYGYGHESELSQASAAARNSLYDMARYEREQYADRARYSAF
UniProt Q9Y3B8: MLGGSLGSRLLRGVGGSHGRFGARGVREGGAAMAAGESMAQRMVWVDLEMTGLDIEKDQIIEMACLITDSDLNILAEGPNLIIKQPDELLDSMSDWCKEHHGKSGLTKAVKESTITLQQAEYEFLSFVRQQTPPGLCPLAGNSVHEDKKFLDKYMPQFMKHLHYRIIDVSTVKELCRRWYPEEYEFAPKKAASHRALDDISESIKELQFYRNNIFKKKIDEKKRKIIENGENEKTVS
UniProt Q9UBS8: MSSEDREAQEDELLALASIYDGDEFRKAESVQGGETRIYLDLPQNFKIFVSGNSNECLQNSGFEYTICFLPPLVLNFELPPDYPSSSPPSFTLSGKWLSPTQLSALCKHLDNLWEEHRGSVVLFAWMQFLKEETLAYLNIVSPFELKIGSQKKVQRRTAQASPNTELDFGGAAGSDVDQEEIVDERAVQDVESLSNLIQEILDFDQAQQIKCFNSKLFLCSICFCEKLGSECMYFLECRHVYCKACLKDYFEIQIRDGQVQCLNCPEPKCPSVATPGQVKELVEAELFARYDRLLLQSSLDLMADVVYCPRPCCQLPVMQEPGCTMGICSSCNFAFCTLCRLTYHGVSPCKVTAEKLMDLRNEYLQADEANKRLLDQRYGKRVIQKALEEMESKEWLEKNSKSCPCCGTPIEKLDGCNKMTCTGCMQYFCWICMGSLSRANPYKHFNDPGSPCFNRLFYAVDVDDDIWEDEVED
UniProt Q96AA3: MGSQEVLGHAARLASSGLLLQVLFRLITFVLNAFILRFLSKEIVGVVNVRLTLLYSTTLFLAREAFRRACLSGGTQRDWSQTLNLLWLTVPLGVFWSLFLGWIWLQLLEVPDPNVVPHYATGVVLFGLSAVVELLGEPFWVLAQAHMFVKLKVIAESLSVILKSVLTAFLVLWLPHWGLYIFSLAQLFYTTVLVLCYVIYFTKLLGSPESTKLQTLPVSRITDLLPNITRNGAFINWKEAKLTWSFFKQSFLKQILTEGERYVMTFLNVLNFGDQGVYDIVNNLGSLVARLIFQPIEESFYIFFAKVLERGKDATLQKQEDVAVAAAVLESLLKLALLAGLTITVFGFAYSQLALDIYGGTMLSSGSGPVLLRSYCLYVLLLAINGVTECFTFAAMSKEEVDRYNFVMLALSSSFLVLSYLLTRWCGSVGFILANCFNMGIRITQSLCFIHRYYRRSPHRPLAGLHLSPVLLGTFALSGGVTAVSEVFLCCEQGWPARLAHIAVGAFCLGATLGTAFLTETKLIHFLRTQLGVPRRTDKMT
UniProt Q96DB5: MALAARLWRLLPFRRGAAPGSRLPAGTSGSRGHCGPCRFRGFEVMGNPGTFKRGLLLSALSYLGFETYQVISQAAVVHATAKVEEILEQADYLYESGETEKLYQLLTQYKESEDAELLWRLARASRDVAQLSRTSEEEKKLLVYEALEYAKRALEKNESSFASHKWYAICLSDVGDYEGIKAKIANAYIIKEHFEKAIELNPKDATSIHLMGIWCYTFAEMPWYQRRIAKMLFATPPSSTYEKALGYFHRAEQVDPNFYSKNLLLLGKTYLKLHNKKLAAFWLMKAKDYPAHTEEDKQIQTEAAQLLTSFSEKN

Experiments:
Test in all cases: log2 fold change, soluble protein after heating vs DMSO (PISA); higher = thermal stabilisation; K562 cells, 10 uM, 30 min; active = over 0.2 and 3.5 SD of the protein, either way, in both replicates (recomputed)
bafetinib = compound: Cc1ccc(NC(=O)c2ccc(CN3CC[C@H](N(C)C)C3)c(C(F)(F)F)c2)cc1Nc1nccc(-c2cncnc2)n1 [bafetinib]
Procedure, shortened: (§1)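 K562 cells at 2×10^6 cells/mL were exposed to 10 μM compound for 30 min, then aliquots were heated for 3 min across 48°C-58°C, pooled, and extracted in PBS containing 0.5% NP-40 at 4°C. The supernatant after 21,000xg for 90 min was taken as soluble protein and measured by TMTpro 16plex LC-MS/MS with channel sums equalised. Thermal stability is reported relative to control samples, with values from duplicates. Fold changes are given on a log2 scale.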

[1] = compound: Cc1cccc(CC(=O)N2CCc3c2ccc(-c2cn(C)c4ncnc(N)c24)c3F)n1
Procedure, shortened: as §1

nilotinib = compound: Cc1cn(-c2cc(NC(=O)c3ccc(C)c(Nc4nccc(-c5cccnc5)n4)c3)cc(C(F)(F)F)c2)cn1 [nilotinib]
Procedure, shortened: as §1

[2] = compound: Cc1nc(Nc2n[nH]c3c2CN(C(=O)N[C@H](CN(C)C)c2ccccc2)C3(C)C)c2sccc2n1
Procedure, shortened: as §1

dasatinib = compound: Cc1nc(Nc2ncc(C(=O)Nc3c(C)cccc3Cl)s2)cc(N2CCN(CCO)CC2)n1 [dasatinib]
Procedure, shortened: as §1

[3] = compound: Cc1ncc(-c2ccnc(Nc3ccc(S(C)(=O)=O)cc3)n2)n1C(C)C
Procedure, shortened: as §1

[4] = compound: Cn1cc(-c2ccc3c(c2)CCN3C(=O)Cc2cccc(C(F)(F)F)c2)c2c(N)ncnc21
Procedure, shortened: as §1

[5] = compound: Cn1cc(-c2ccc3nnc(C(F)(F)c4ccc5ncccc5c4)n3n2)cn1
Procedure, shortened: as §1

tipifarnib = compound: Cn1cncc1[C@@](N)(c1ccc(Cl)cc1)c1ccc2c(c1)c(-c1cccc(Cl)c1)cc(=O)n2C [tipifarnib]
Procedure, shortened: as §1

mubritinib = compound: FC(F)(F)c1ccc(/C=C/c2nc(COc3ccc(CCCCn4ccnn4)cc3)co2)cc1 [mubritinib]
Procedure, shortened: as §1

[6] = compound: NC(=O)Nc1cc(-c2cccc(F)c2)sc1C(=O)N[C@H]1CCCNC1
Procedure, shortened: as §1

[7] = compound: NC(=O)c1cnc(N[C@@H]2CCCC[C@@H]2N)nc1Nc1cccc(-n2nccn2)c1
Procedure, shortened: as §1

[8] = compound: NC1(c2ccc(-c3nc4ccn5c(=O)[nH]nc5c4cc3-c3ccccc3)cc2)CCC1
Procedure, shortened: as §1

[9] = compound: NCC(=O)Nc1ccc(-n2nc(C(F)(F)F)cc2-c2ccc3c(ccc4ccccc43)c2)cc1
Procedure, shortened: as §1

entinostat = compound: Nc1ccccc1NC(=O)c1ccc(CNC(=O)OCc2cccnc2)cc1 [entinostat]
Procedure, shortened: as §1

vorinostat = compound: O=C(CCCCCCC(=O)Nc1ccccc1)NO [vorinostat]
Procedure, shortened: as §1

citarinostat = compound: O=C(CCCCCCNC(=O)c1cnc(N(c2ccccc2)c2ccccc2Cl)nc1)NO [citarinostat]
Procedure, shortened: as §1

silmitasertib = compound: O=C(O)c1ccc2c(c1)nc(Nc1cccc(Cl)c1)c1ccncc12 [silmitasertib]
Procedure, shortened: as §1

[10] = compound: O=C1NC(=O)C(c2cnc3ccccn23)=C1c1cn2c3c(cc(F)cc13)CN(C(=O)N1CCCCC1)CC2
Procedure, shortened: as §1

[11] = compound: c1cc(OCCN2CCCCC2)cc(-c2n[nH]c3ccc(-c4nnc[nH]4)cc23)c1
Procedure, shortened: as §1

Measured: log2 fold change

RFC4 (UniProt P35249)
inactive: bafetinib -0.036 | [1] 0.056 | nilotinib -0.04 | [2] -0.025 | dasatinib -0.046 | [3] -0.001 | [4] 0.042 | [5] 0.046 | tipifarnib -0.002 | mubritinib -0.012 | [6] 0.04 | [7] 0.075 | [8] -0.071 | [9] -0.025 | entinostat 0.019 | vorinostat 0.08 | citarinostat 0.025 | silmitasertib -0.044 | [10] -0.025 | [11] -0.014

RHOG (UniProt P84095)
inactive: bafetinib -0.008 | [1] -0.051 | nilotinib 0.018 | [2] 0.01 | dasatinib 0.056 | [3] 0 | [4] 0.06 | [5] -0.039 | tipifarnib 0.013 | mubritinib 0.009 | [6] -0.026 | [7] 0.029 | [8] 0.016 | [9] -0.004 | entinostat -0.039 | vorinostat -0.027 | citarinostat 0.037 | silmitasertib -0.046 | [10] -0.058 | [11] 0.054

RCN3 (UniProt Q96D15)
inactive: bafetinib -0.015 | nilotinib 0.015 | [2] -0.011 | dasatinib 0.045 | [3] 0.011 | [4] 0.162 | [5] 0.057 | tipifarnib -0.038 | mubritinib -0.056 | [6] -0.042 | [7] -0.027 | [8] 0.105 | [9] -0.013 | entinostat -0.027 | vorinostat -0.122 | citarinostat -0.063 | silmitasertib -0.002 | [10] -0.039 | [11] 0.12
active: [1] -0.318

REPIN1 isoform 4 (UniProt Q9BWE0)
inactive: bafetinib 0 | [1] -0.022 | nilotinib 0.013 | [2] -0.014 | dasatinib 0.06 | [3] 0.024 | [4] -0.007 | [5] -0.03 | tipifarnib -0.018 | mubritinib 0.005 | [6] 0.005 | [7] -0.045 | [8] 0.028 | [9] 0.083 | entinostat 0.028 | vorinostat 0.019 | citarinostat 0.034 | silmitasertib 0.003 | [10] -0.016 | [11] 0.004

RCOR1 (UniProt Q9UKL0)
inactive: bafetinib 0.011 | [1] 0.021 | nilotinib -0.034 | [2] -0.107 | dasatinib -0.063 | [3] -0.062 | [4] -0.005 | [5] 0.033 | tipifarnib -0.087 | mubritinib 0.07 | [6] 0.035 | [7] -0.104 | [8] -0.03 | [9] -0.133 | entinostat 0.189 | vorinostat 0.082 | citarinostat 0.007 | silmitasertib 0.016 | [10] -0.043 | [11] -0.103

RFESD isoform 2 (UniProt Q8TAC1)
inactive: bafetinib -0.079 | [1] 0.041 | nilotinib 0.007 | [2] -0.009 | dasatinib 0.003 | [3] 0.006 | [4] 0.015 | [5] -0.01 | tipifarnib 0.033 | mubritinib 0.048 | [6] 0.016 | [7] 0.007 | [8] -0.002 | [9] 0.019 | entinostat -0.061 | vorinostat -0.072 | citarinostat 0.044 | silmitasertib 0.061 | [10] -0.039 | [11] -0.054

RMND1 (UniProt Q9NWS8)
inactive: bafetinib -0.041 | [1] -0.017 | nilotinib -0.022 | [2] 0.002 | dasatinib -0.046 | [3] -0.091 | [4] 0.064 | [5] 0.037 | tipifarnib -0.067 | mubritinib 0.002 | [6] 0.063 | [7] -0.02 | [8] 0.012 | [9] -0.025 | entinostat 0.005 | vorinostat -0.073 | citarinostat 0.014 | silmitasertib -0.03 | [10] -0.044 | [11] -0.037

RNF126 (UniProt Q9BV68)
inactive: bafetinib -0.106 | [1] 0.005 | nilotinib -0.007 | [2] -0.009 | dasatinib 0.06 | [3] -0.014 | [4] 0.038 | [5] -0.07 | tipifarnib -0.077 | mubritinib 0.004 | [6] -0.099 | [7] 0.044 | [8] -0.026 | [9] 0.027 | entinostat 0.002 | vorinostat -0.004 | citarinostat 0.07 | silmitasertib 0.029 | [10] -0.046 | [11] -0.018

Retrieved one by one from the list above, two records:
RNF126 (UniProt Q9BV68)
inactive: bafetinib -0.106 | [1] 0.005 | nilotinib -0.007 | [2] -0.009 | dasatinib 0.06 | [3] -0.014 | [4] 0.038 | [5] -0.07 | tipifarnib -0.077 | mubritinib 0.004 | [6] -0.099 | [7] 0.044 | [8] -0.026 | [9] 0.027 | entinostat 0.002 | vorinostat -0.004 | citarinostat 0.07 | silmitasertib 0.029 | [10] -0.046 | [11] -0.018

REPIN1 isoform 4 (UniProt Q9BWE0)
inactive: bafetinib 0 | [1] -0.022 | nilotinib 0.013 | [2] -0.014 | dasatinib 0.06 | [3] 0.024 | [4] -0.007 | [5] -0.03 | tipifarnib -0.018 | mubritinib 0.005 | [6] 0.005 | [7] -0.045 | [8] 0.028 | [9] 0.083 | entinostat 0.028 | vorinostat 0.019 | citarinostat 0.034 | silmitasertib 0.003 | [10] -0.016 | [11] 0.004

Carrying on.

REEP4 (UniProt Q9H6H4)
inactive: bafetinib 0.021 | [1] 0.127 | nilotinib -0.017 | [2] -0.077 | dasatinib -0.079 | [3] 0.067 | [4] -0.052 | [5] -0.056 | tipifarnib -0.109 | mubritinib -0.04 | [6] 0.002 | [7] -0.032 | [8] -0.012 | [9] 0.084 | entinostat 0.027 | vorinostat 0.088 | citarinostat 0.048 | silmitasertib 0.027 | [10] 0.097 | [11] -0.059

RBM4 (UniProt Q9BWF3)
inactive: bafetinib -0.049 | [1] -0.01 | nilotinib -0.047 | [2] -0.095 | dasatinib -0.033 | [3] -0.039 | [4] -0.054 | [5] -0.063 | tipifarnib -0.013 | mubritinib -0.082 | [6] 0.015 | [7] -0.031 | [8] -0.017 | [9] -0.033 | entinostat 0.023 | vorinostat 0.06 | citarinostat -0.015 | silmitasertib 0.095 | [10] -0.002 | [11] -0.092

RNF213 isoform 4 (UniProt Q63HN8)
inactive: bafetinib -0.295 | [1] 0.077 | nilotinib -0.243 | [2] -0.018 | dasatinib -0.327 | [3] 0.09 | [4] -0.028 | [5] -0.053 | tipifarnib 0.109 | mubritinib 0.019 | [6] 0.122 | [7] -0.12 | [8] -0.098 | [9] -0.102 | entinostat 0.01 | vorinostat 0.035 | citarinostat -0.241 | silmitasertib 0.058 | [10] 0.1 | [11] -0.314

REXO2 (UniProt Q9Y3B8)
inactive: bafetinib -0.038 | [1] -0.031 | nilotinib -0.015 | [2] 0.033 | dasatinib 0.016 | [3] 0.002 | [4] 0.029 | [5] 0.001 | tipifarnib -0.027 | mubritinib 0.037 | [6] 0.023 | [7] -0.005 | [8] 0.024 | [9] 0.015 | entinostat -0.01 | vorinostat 0.034 | citarinostat 0.021 | silmitasertib -0.018 | [10] -0.056 | [11] -0.007

RNF14 (UniProt Q9UBS8)
inactive: bafetinib -0.033 | [1] 0.05 | nilotinib -0.002 | [2] -0.07 | dasatinib -0.136 | [3] -0.048 | [4] -0.017 | [5] 0.033 | tipifarnib -0.05 | mubritinib 0.017 | [6] -0.016 | [7] -0.054 | [8] -0.157 | [9] 0.008 | entinostat 0.037 | vorinostat 0.021 | citarinostat -0.006 | silmitasertib 0.003 | [10] -0.127 | [11] -0.007

RFT1 (UniProt Q96AA3)
inactive: bafetinib -0.07 | [1] -0.037 | nilotinib -0.038 | [2] 0.012 | dasatinib 0.048 | [3] -0.026 | [4] 0.042 | [5] 0.044 | tipifarnib 0.09 | mubritinib 0.077 | [6] -0.056 | [7] 0.001 | [8] 0.06 | [9] -0.007 | entinostat -0.004 | vorinostat -0.036 | citarinostat 0.026 | silmitasertib 0.016 | [10] 0.058 | [11] -0.084

RMDN1 (UniProt Q96DB5)
inactive: bafetinib -0.077 | [1] 0.065 | nilotinib -0.027 | [2] -0.006 | dasatinib -0.043 | [3] 0.018 | [4] 0.062 | [5] -0.006 | tipifarnib -0.04 | mubritinib 0.086 | [6] -0.04 | [7] -0.037 | [8] -0.127 | [9] 0.028 | entinostat 0.01 | vorinostat 0.028 | citarinostat 0.048 | silmitasertib -0.04 | [10] -0.051 | [11] -0.028
